From patent US20120208867

Target: T1, HMGB1 (no His-tag) (UniProt P09429)
T1 sequence (looked up, limits assumed): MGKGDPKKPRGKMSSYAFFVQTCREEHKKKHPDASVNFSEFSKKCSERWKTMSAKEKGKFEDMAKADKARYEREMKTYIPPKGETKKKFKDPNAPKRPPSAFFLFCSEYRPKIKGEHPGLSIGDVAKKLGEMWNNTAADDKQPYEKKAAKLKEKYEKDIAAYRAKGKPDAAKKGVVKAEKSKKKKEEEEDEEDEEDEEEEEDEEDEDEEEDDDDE
Assay: pull-down
Conditions: dose-dependently inhibits HMGB1 binding to His-TLR-2; 1-4 ug RNA, 4 C; purified recombinant protein; variant of R8c6_1

GGGAGUACAGUAAGACACGUAGCACCAGUCUGACGUUUGUCGUCAGUGCCUGGACGUGCAGU [R8c6_1-18]
functional effect of the aptamer: active

Tags and fusion partners may be left off the protein sequences shown.
